Test: general procedure: Fmoc solid-phase peptide synthesis; Rink amide resin (200 mg, 0.46 meq/g); DCC/6-Cl-HOBt
Settings: for purity (crude or final not stated): whole synthesis, scale of the general procedure 200 mg resin, 0.46 meq/g

| Substance | conjugation yield (conjugation step) [%] | final HPLC purity (conjugation step, RP-HPLC) [%] | purity (crude or final not stated) (RP-HPLC) [%] |
| --- | --- | --- | --- |
| CTpH(F)-(AAC-(K)-RRWQWR)4 (rctt) | 56.6 | 74.6 | – |
| K(N3)-RLLR-NH2 | – | – | 98.2 |
| K(N3)-RRWQWR-NH2 | – | – | 83.7 |

Source: publication PMC10135297 (Antibiotics, 2023)
